Experimental data from article PMC10163288.
Some of the results follow.

B1: il10ra_site1_normal_mot_HHH_b2_06979_000000158_0001_42_57_H_._HHH_b1_07778_af2_0001_0000100005_0000002_0 (protein)
chain: SSSSDEAHRAIELFREALELLANGDPEEAQEVIEEAKELAEEAGNELLLHNIEYLERDINSSSSS
B2: il10ra_site1_sap_21_mot_HHH_b2_04680_000000215_0001_1_16_H_._HHH_b1_05281_af2_0001_0000200007_0000002_0_0001_af2pred_0001 (protein)
chain: SSSSSTEEAQRKVVKELLEEAEHIEDEHERRLVLNLARVAAKLTGNEELEELVRKVAEELSSSSS
B3: il10ra_site1_normal_mot_HHH_b2_07144_000000289_0001_1_18_H_._HHH_b1_04467_0001_0000100001_0000001_0 (protein)
chain: SSSSDAEEIYRLSREAAELLRNGNPEEAREVVEEALRLAEEAGNATFVFAARHLLEDIEKSSSSS
B4: il10ra_site1_sap_26_mot_65b8060e20531850bca9f2e11f97d954_0001_af2_000000137_0001_17_31_H_._HHH_b2_02577_0001_0000200010_0000001_0_0001 (protein)
chain: SSSSDLEEIWELIRKAMELARQGNLEEAERLIREALEIAEEAGNRAMQHQLKMVLEDLEERSSSS
B5: il10ra_site1_sap_24_mot_HHH_b1_06816_000000239_0001_1_19_H_._HHH_b1_06343_0001_0000100003_0000003_0_0001_af2pred_0001 (protein)
chain: SSSSSEVVQEVIRLIRKALELLANGNPEEAEEVLKEAKELAEEGNNLTLKFSIEAAERAINSSSS
B6: il10ra_site1_normal_mot_HHH_b2_03328_af2_000000127_0001_1_19_H_._HHH_b2_04646_af2_0001_0000100005_0000002_0_af2pred_0001 (protein)
chain: SSSSDEEEERLRELEEQRERAKEEGDEEKFARLAVELSRLLAQAGNYEEARRLAKELARISSSSS
B7: il10ra_site1_normal_mot_HHH_b1_07527_000000076_0001_1_15_H_._HHH_b2_04719_af2_0001_0000100001_0000001_0_af2pred_0001 (protein)
chain: SSSSSSSEAEEIVRLIREALRIEDEEEAREILEEALELAEKANNFAAFFAAEHLLKILSSSSSSS
B8: il10ra_site1_sap_26_mot_HHH_b1_05185_000000011_0001_22_39_H_._HHH_b1_08225_0002_0000200012_0000001_0_0001 (protein)
chain: SSSSDEDFELARRFIELVIELLRRGNKEEAQEVLKELEELAEETNNPILRHLLELLQRQLKSSSS
B9: il10ra_site1_sap_12_mot_HHH_b1_02062_000000185_0001_1_20_H_._HHH_b2_04276_0001_0000100009_0000002_0_0001 (protein)
chain: SSSSSDTDEAFRRVLELMEEARHVSEEEAEKLLEEAKELAEEANSEYLLRAVEYLERDETSSSSS
B10: il10ra_site1_normal_mot_HHH_b1_01879_000000050_0001_1_18_H_._HHH_b2_02257_0001_0000300009_0000002_0_af2pred_dldesign_0_af2pred (protein)
chain: SSSSDPEVDKAAFEAKVKAYQLGDEETLRRLAELSHQVKLTKDPELKKELYELAKSLLDEISSSS
B11: il10ra_site1_sap_17_mot_HHH_b2_00475_000000002_0001_44_57_H_._HHH_b2_01636_0001_0000300020_0000001_0_0001 (protein)
chain: DEEELERLLREAGVPPELIRLVRLSFKRLKEQGSPPETVLRALLMVVRAMGDPRASEVLEELLER
B12: il10ra_site1_normal_mot_HHH_b2_02337_000000026_0001_38_52_H_._HHH_b1_01460_af2_0001_0000100008_0000002_0 (protein)
chain: SSSSDEEEELKRLIEELEELLERNDEERFARVAQRASQLALESGNAELLKVIWELVQRLRSSSSS
B13: il10ra_site1_normal_mot_HHH_b1_02397_af2_000000085_0001_39_57_H_._HHH_b1_03194_0001_0000100004_0000002_0 (protein)
chain: SSSSSSDVEELLERLEELLEEGNHEEAARLLQEALRHAFRNSDPELLKELHEFAKRLASSSSSSS
B14: il10ra_site1_normal_mot_HHH_b1_07211_af2_000000161_0001_24_40_H_._HHH_b2_07834_af2_0001_0000500039_0000001_0 (protein)
chain: SSSSDEEHRELAELLREIMEAYRRGDPEEVEELLELLEELAKKLNDEQARWLVELFREALSSSSS
B15: il10ra_site1_sap_26_mot_HHH_b2_06864_af2_000000190_0001_1_20_H_._HHH_b2_05072_0001_0000200020_0000001_0_0001 (protein)
chain: SSSSSSEEVEELLKEAEELYERGDHEKVIEVLQRAVRAAYELKDPELLQAVWRLVHELVSSSSSS
B16: il10ra_site1_sap_26_mot_HHH_b2_03220_af2_000000223_0001_23_40_H_._HHH_b1_06492_af2_0001_0000400018_0000001_0_0001 (protein)
chain: SSSSDAEERARELLEEAEELLEEGDRERFARVVQEALRVAFQASDEEILQALWRLMKSLQSSSSS
B17: il10ra_site1_normal_mot_HHH_b1_07835_af2_000000063_0001_1_16_H_._HHH_b2_02304_0001_0000300026_0000001_1_af2pred_0001 (protein)
chain: SSSSDEEIRERIEELLEEAKHIENEREVAELLAEASRLALRLRDPELARLVDEVAIEINLSSSSS
B18: il10ra_site1_sap_20_mot_HHH_b2_00479_000000091_0001_1_12_H_._HHH_b1_00442_0001_0000200009_0000002_0_0001_af2pred_0001 (protein)
chain: SSSSSRDERALKRLKRSAELAAERGDPKAAKIALRFAKLLAELLNDEELLREIEKLLEELSSSSS
B19: il10ra_site1_sap_30_mot_HHH_b2_03590_000000030_0001_43_56_H_._HHH_b1_00902_0001_0000400038_0000001_0_0001_af2pred_0001 (protein)
chain: SSSSSDEELLRLAIRFAKFLEEEGDPEAAKFILEAAIELARKAGDEELLEEAERVLEELDSSSSS
B20: il10ra_site1_normal_mot_HHH_b2_00800_af2_000000047_0001_1_20_H_._HHH_b1_00120_0001_0000100007_0000001_0 (protein)
chain: SSSSQEEYEFVRKVIEEVLELIRKGDPEEAERLLEEAEQFLRELGDELRLLQIEHLLRLLRSSSS
B21: il10ra_site1_sap_10_mot_21555af6df39fbf105a98f94538c59b3_0001_af2_000000275_0001_17_30_H_._HHH_b2_01902_0001_0000400011_0000002_0_0001_af2pred_0001 (protein)
chain: SSSSSDEEAVRLFLEAAKLIEDPERRKRALRFAEFLAKEANNPELEKLVEEVKEELEEKSSSSSS
B22: il10ra_site1_sap_25_mot_HHH_b1_02492_000000051_0001_1_21_H_._HHH_b2_03821_0001_0000300023_0000001_0_0001 (protein)
chain: SSSSSEELYKLAEEALELLHQGDREEAERILEEAEEIAKERNDRVLLIVIRFLLRDVEASSSSSS
B23: il10ra_site1_sap_13_mot_HHH_b2_01447_af2_000000258_0001_1_20_H_._HHH_b1_00942_0001_0000300030_0000001_0_0001 (protein)
chain: SSSSDERYEEVKRLIEEIIRLVREGNPEEAEKLLERLEELAEQFNNPVLRFVVELLERAINSSSS
B24: il10ra_site1_sap_24_mot_HHH_b2_03631_af2_000000003_0001_42_56_H_._934a834d9b8b770824478def2ff2f329_0001_af2_0001_0000300012_0000001_0_0001 (protein)
chain: DEDRRRMELLEEAVSTSQEAARLLRRLLEAMFRGDPELAKELVEQLVELLGLPPEDEELLEESVR
B25: il10ra_site1_normal_mot_513c16ae44941e68898e0f7c259e5a28_0001_1_000000056_0001_35_50_H_._ems_p1-15H-GBL-16H-GABBL-16H_0062_0001_0001_0001_0001_0000400006_000000 … (protein)
chain: SSSSSSVEELAEEARELAKERGDEQAEDLVRFLERAMEQGILDPRVAKESLEALIRLLEESSSSS
B26: il10ra_site1_sap_35_mot_65b8060e20531850bca9f2e11f97d954_0001_af2_000000137_0001_17_31_H_._HHH_b2_07147_af2_0001_0000400021_0000002_0_0001 (protein)
chain: SSSSSAEEEIERLIREAEELLERGNPEEALRLVMEALRLAFQASNAELLRELWRLAKRIASSSSS
B27: il10ra_site1_sap_9_mot_HHH_b2_00943_af2_000000149_0001_1_17_H_._HHH_b1_00248_0001_0000300021_0000002_0_0001 (protein)
chain: SSSSSSLTEAFERVKELLEEAAQIEDDEEVRELLEEAEKAAEEVNNEYLLRAIEYLKRILSSSSS
B28: il10ra_site1_sap_24_mot_HHH_b2_04001_000000102_0001_19_36_H_._HHH_b2_02525_af2_0001_0000200010_0000002_0_0001_af2pred_dldesign_0_af2pred (protein)
chain: SSSSSSPLEKEVERLLEEAKKEEDEQKFAELLRKAMKLAYEAKNEELFKKVVDLAAARLESSSSS
B29: il10ra_site1_normal_mot_HHH_b2_06857_af2_000000179_0001_42_54_H_._HHH_b1_03771_af2_0001_0000300018_0000001_0 (protein)
chain: SSSSTEELERLYELLRRIAELHSEGNPEEAKELIEEAEELAERLGNELVRFQLEFLHRQVDSSSS
B30: il10ra_site1_normal_mot_HHH_b2_08186_000000021_0001_43_56_H_._HHH_b1_04390_0001_0000200019_0000001_0 (protein)
chain: SSSSSSSLSELALRALQLAYKIPDPEESEELLQLIWEALKKGDEEELREIVERLEEELSSSSSSS
B31: il10ra_site1_sap_21_mot_HHH_b2_08004_000000101_0001_1_17_H_._HHH_b1_07228_af2_0001_0000200011_0000001_0_0001 (protein)
chain: SSSSDLEEEIERLREELREAEERGDEELALRLLFELIQLAYHTNDEELLRELWEAVKRLFSSSSS
B32: il10ra_site1_sap_15_mot_HHH_b1_01874_000000035_0001_1_20_H_._HHH_b1_07861_0001_0000100004_0000002_0_0001_af2pred_dldesign_0_af2pred (protein)
chain: SSSSSPELEEIEALIKELKALEDPDAVYLAEKLKEAYERTGDPRLLTMARNLLEDARARVESSSS
B33: il10ra_site1_normal_mot_ems_3hM_3349_af2_000000150_0001_25_42_H_._b4be136d7f8a4bb058aae31a77d31857_0001_0001_0000200005_0000001_0 (protein)
chain: SLEELVEELLEELGVPPEEIRLVKLALRQQAEQNGDPEEALEALARALRLMGDPKVVKVLEEVLK
B34: il10ra_site1_sap_14_mot_e0dbc3348a3fcd95f014b317fc0bf3a6_0001_000000040_0001_16_30_H_._75bdb2aef64737852ff07fad4f0fc64e_0001_0001_0000100001_0000001_0_0001 (protein)
chain: SSSSSEEERLIELLEELLHAYVEGDREEAQELVEEATELAEKLGNRAARWSLRAIERALKSSSSS
B35: il10ra_site1_normal_mot_HHH_b2_05323_000000159_0001_1_18_H_._HHH_b1_01966_0001_0000200024_0000001_0 (protein)
chain: SSSSSDNEEALELSLEAFRLLLRGDPEQAREVLEEALELAERAGNERLARIIEDQLRILSSSSSS
B36: il10ra_site1_sap_18_mot_HHH_b2_03827_000000021_0001_1_19_H_._HHH_b1_08445_0001_0000400052_0000002_0_0001 (protein)
chain: SSSSSDVEEEIEELLEEAKRIEDPEQAKEVILRAAALAARLRDPHLSMLVIHVYAELDQRSSSSS
B37: il10ra_site1_normal_mot_HHH_b2_03220_af2_000000223_0001_23_40_H_._HHH_b2_02346_0001_0000100008_0000002_0_af2pred_0001 (protein)
chain: SSSSSSEELEEALKLLREALQIDDPEEARRVAEEAVEILEEAGNEEALRIAELILRNLKSSSSSS

biological target: il10ra, Q13651; test: yeast display titration

Apparent Kd, inactive:
B1 no binding seen
B2 no binding seen
B3 no binding seen
B4 no binding seen
B5 no binding seen
B6 no binding seen
B7 no binding seen
B8 no binding seen
B9 no binding seen
B10 no binding seen
B11 no binding seen
B12 no binding seen
B13 no binding seen
B14 no binding seen
B15 no binding seen
B16 no binding seen
B17 no binding seen
B18 no binding seen
B19 no binding seen
B20 no binding seen
B21 no binding seen
B22 no binding seen
B23 no binding seen
B24 no binding seen
B25 no binding seen
B26 no binding seen
B27 no binding seen
B28 no binding seen
B29 no binding seen
B30 no binding seen
B31 no binding seen
B32 no binding seen
B33 no binding seen
B34 no binding seen
B35 > 4.72 nM
B36 no binding seen
B37 no binding seen

Copied from the listing (2 entries):
Apparent Kd, inactive:
B2 no binding seen
B3 no binding seen
